Source: the supplement of paper PMC10849652
Some of the results follow.

Sequences of proteins named here, by UniProt entry; tags and fusion partners are left off. A change or cut given only in a name is not applied to a line headed by its entry.
UniProt Q9HCU9: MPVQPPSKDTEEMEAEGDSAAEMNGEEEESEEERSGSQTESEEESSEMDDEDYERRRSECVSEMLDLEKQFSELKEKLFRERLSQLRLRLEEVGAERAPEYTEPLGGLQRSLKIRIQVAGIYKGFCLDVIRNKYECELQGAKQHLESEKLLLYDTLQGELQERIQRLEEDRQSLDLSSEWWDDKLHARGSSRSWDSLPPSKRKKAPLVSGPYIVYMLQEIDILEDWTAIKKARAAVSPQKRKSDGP
UniProt Q9NZS9: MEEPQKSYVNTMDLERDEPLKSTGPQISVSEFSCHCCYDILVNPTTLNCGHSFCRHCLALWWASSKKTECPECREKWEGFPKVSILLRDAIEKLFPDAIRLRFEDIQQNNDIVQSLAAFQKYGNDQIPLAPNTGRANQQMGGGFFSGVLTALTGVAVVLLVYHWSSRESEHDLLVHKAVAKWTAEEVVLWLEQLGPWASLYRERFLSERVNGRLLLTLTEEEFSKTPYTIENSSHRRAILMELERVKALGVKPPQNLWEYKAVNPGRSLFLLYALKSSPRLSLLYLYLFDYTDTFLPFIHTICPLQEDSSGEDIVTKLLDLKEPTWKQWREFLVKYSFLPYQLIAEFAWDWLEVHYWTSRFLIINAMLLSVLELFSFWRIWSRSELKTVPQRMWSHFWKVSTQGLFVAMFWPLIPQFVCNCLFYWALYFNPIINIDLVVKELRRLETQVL
UniProt P38398, whole entry, looked up: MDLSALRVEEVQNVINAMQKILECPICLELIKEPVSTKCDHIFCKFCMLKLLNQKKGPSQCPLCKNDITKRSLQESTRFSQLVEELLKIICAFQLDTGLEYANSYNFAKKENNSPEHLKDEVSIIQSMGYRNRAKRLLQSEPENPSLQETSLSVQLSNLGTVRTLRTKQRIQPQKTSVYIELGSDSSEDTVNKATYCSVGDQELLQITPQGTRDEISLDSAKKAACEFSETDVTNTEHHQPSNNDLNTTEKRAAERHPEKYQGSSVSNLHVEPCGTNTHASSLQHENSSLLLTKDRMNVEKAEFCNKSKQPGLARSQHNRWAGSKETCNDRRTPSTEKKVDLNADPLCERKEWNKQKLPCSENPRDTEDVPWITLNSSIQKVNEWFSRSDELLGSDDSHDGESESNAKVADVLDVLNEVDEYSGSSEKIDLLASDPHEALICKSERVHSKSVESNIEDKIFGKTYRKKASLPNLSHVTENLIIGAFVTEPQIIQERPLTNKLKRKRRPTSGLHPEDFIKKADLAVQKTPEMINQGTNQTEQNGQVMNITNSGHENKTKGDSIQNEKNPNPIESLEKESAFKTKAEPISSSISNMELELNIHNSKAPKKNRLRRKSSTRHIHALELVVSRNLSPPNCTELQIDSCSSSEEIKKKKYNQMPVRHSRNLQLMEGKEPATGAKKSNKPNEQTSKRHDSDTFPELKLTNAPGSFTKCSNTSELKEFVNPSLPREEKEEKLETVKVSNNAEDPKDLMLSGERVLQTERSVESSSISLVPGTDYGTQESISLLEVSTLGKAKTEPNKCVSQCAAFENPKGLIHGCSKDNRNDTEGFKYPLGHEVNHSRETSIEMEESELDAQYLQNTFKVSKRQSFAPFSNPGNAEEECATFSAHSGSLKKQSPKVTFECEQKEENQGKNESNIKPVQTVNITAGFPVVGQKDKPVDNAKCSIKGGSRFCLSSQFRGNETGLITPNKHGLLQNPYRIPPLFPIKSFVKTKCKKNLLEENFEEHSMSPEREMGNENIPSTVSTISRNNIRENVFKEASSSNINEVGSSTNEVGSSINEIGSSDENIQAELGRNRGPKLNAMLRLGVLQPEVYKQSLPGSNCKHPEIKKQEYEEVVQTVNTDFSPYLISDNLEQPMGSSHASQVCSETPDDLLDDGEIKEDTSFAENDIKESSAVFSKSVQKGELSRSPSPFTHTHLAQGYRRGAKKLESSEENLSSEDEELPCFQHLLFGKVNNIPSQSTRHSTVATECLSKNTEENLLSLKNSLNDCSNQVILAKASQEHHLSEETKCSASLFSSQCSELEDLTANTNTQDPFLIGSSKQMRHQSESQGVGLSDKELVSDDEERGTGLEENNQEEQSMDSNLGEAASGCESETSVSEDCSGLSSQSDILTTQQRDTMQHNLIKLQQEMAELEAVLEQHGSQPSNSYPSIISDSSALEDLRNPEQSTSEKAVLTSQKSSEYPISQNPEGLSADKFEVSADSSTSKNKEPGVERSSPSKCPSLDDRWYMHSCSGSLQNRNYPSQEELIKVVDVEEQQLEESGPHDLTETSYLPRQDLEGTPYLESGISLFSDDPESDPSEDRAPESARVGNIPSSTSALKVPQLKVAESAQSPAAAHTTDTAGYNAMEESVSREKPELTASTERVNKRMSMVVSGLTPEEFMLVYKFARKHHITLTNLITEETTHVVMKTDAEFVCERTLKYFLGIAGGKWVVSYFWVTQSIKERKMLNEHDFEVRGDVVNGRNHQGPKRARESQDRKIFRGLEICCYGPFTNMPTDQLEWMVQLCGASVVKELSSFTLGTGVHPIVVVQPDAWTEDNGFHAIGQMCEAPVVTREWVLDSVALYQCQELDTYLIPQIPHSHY
UniProt Q9NYM9: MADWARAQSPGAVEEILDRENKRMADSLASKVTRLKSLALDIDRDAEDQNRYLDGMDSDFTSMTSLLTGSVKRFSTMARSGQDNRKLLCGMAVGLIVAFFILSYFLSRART
UniProt Q9BQE9, whole entry, looked up: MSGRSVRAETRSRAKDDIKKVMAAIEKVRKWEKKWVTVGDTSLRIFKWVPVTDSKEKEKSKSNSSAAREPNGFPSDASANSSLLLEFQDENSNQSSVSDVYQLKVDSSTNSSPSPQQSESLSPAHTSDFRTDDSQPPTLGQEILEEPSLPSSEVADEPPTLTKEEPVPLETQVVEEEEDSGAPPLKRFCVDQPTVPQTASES
UniProt O60238, whole entry, looked up: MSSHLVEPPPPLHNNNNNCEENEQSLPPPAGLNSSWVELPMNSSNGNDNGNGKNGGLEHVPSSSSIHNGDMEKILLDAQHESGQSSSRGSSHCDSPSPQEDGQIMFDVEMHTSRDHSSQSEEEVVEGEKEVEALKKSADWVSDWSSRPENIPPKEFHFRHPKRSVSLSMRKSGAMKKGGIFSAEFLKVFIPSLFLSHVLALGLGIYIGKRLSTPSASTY
UniProt Q8IXM2, whole entry, looked up: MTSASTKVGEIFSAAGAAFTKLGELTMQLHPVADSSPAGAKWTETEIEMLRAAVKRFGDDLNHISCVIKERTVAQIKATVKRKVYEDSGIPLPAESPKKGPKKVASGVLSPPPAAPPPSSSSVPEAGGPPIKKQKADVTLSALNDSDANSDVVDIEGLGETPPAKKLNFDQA
UniProt Q96IK1: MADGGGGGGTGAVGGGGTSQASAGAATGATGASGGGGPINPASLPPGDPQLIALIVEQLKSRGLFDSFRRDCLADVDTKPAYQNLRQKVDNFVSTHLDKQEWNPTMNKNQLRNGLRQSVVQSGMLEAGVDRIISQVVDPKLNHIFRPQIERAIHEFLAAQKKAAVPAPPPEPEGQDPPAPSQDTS
UniProt Q9UIG0: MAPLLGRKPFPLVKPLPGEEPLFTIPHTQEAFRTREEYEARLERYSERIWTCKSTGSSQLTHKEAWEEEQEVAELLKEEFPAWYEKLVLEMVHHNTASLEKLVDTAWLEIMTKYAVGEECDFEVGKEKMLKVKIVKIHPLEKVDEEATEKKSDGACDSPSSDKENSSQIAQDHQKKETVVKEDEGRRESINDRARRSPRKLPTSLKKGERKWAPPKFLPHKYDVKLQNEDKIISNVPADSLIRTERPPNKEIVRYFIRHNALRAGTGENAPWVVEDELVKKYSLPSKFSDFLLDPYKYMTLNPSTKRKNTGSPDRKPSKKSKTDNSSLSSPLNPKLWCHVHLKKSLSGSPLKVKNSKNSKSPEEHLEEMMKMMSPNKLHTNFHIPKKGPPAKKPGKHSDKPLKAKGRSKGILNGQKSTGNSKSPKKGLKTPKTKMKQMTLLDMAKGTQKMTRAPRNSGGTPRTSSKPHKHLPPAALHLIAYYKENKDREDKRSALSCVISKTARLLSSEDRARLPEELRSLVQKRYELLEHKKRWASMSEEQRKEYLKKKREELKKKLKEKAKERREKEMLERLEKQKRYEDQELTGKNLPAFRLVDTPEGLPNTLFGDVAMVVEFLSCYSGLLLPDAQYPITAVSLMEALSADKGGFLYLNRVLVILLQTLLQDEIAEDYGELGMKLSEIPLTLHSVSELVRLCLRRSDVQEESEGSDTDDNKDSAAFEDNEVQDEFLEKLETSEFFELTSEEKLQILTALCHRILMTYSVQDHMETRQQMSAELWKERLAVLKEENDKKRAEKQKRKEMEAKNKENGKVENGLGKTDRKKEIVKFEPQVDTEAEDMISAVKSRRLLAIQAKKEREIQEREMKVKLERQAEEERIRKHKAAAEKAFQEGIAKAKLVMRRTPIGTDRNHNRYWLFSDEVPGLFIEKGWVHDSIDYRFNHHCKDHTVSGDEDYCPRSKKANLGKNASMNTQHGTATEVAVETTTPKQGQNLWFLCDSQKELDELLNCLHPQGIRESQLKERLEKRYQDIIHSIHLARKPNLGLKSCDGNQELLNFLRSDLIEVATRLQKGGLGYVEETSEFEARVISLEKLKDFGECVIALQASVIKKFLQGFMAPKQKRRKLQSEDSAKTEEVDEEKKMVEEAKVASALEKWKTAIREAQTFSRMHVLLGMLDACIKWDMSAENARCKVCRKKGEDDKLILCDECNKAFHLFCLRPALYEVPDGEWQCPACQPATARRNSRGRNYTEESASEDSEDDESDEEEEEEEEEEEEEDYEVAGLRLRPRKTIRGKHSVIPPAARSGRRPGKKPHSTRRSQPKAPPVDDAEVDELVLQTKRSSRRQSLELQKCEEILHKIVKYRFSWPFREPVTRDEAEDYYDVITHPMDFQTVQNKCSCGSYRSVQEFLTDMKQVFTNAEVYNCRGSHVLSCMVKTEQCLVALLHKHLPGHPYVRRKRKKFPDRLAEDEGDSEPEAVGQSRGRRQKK
UniProt O43521, whole entry, looked up: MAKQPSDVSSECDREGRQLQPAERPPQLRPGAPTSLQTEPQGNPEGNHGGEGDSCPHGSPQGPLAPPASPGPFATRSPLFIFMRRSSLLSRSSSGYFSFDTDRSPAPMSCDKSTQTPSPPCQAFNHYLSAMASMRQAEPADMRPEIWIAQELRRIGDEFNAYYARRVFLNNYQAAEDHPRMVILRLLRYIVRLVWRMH
UniProt O00499: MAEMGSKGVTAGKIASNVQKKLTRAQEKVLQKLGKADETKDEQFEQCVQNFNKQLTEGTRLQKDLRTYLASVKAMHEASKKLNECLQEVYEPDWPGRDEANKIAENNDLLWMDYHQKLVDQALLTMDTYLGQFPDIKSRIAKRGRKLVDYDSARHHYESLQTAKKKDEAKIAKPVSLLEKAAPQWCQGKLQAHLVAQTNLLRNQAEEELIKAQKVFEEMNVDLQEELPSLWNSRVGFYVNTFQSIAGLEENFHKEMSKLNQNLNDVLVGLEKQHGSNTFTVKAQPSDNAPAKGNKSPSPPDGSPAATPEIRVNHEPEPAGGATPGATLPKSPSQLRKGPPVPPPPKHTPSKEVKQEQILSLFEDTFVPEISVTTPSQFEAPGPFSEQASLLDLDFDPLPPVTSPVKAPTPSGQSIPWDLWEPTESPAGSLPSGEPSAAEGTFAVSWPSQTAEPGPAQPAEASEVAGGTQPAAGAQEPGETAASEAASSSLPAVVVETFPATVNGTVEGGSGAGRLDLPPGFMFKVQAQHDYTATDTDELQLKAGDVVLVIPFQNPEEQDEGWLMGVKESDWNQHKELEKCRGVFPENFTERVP

Each target was assayed with NC1(c2ccc(-c3nc4ccn5c(=O)[nH]nc5c4cc3-c3ccccc3)cc2)CCC1 (assay: log2 fold change, soluble protein after heating vs DMSO (PISA); higher = thermal stabilisation; K562 cells, 10 uM, 30 min; active = over 0.2 and 3.5 SD of the protein, either way, in both replicates (recomputed)).
In short: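 Values are thermal stability changes relative to control samples and are taken from duplicates. They are stated as log2 fold changes. Before quantification by TMTpro 16plex LC-MS/MS with equalised channel sums, K562 cells at 2×10^6 cells/mL were treated with 10 μM compound for 30 min, heated in aliquots for 3 min across 48°C-58°C, pooled, extracted in PBS with 0.5% NP-40 at 4°C, and centrifuged at 21,000xg for 90 min to give the soluble supernatant.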

log2 fold change, inactive:
BRMS1 (UniProt Q9HCU9) 0.121
BFAR (UniProt Q9NZS9) -0.114
BRCA1 isoform 7 (UniProt P38398) -0.057
BET1L (UniProt Q9NYM9) -0.062
AURKAIP1 (UniProt Q9NWT8) 0.239
BCL7B (UniProt Q9BQE9) 0.098
BNIP3L (UniProt O60238) -0.004
BRAF, A0A2R8Y8E0 -0.31
BCL7C (UniProt Q8WUZ0) -0.044
BAHD1 (UniProt Q8TBE0) -0.084
BAP18 isoform 3 (UniProt Q8IXM2) -0.042
BOD1 (UniProt Q96IK1) 0.019
BAZ1B (UniProt Q9UIG0) 0.016
BCL2L11 (UniProt O43521) 0.019
BIN1 (UniProt O00499) 0.109
ATXN2 (UniProt F8W0B5) 0.069

2 consecutive entries from above:
log2 fold change, inactive:
BRMS1 (UniProt Q9HCU9) 0.121
BFAR (UniProt Q9NZS9) -0.114
